Data on one substance can be found in patent US20190359955A1.

Sequences of proteins named here, by UniProt entry; tags and fusion partners are left off. A change or cut given only in a name is not applied to a line headed by its entry. Residues count along the entry.
UniProt P0CE47, residues 2-394: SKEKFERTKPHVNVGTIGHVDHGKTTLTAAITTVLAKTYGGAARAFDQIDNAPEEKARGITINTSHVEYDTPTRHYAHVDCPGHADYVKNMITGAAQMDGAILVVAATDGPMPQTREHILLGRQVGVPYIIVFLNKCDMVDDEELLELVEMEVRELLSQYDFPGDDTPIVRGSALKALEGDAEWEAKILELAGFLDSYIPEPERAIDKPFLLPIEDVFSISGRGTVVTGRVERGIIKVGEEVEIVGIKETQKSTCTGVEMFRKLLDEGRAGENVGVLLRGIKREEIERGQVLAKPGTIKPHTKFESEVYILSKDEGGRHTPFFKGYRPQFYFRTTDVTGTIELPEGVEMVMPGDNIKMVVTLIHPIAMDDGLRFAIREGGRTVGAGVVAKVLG
UniProt A7ZHR0: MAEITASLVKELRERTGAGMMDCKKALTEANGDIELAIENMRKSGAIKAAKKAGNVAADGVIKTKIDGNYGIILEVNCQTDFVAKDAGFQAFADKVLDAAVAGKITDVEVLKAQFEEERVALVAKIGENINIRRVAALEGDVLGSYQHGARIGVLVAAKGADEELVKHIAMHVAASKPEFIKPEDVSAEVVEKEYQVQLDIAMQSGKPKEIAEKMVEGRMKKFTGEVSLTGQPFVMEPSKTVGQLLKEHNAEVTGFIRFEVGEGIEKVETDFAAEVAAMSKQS

No constants are given. Whether binding was seen depends on the method and setting. In cells and extracts the contact can be indirect. Some binding calls cover weakened binding; strength is not graded here.

This assay deals with protein Tu (UniProt P0CE47). The experiment in a line: co-purification in a protein purification experiment (data not shown).

On to “elongation factor Ts (Tsf) (from UniProt A7ZHR0 1-283)”, for which the binding result is on record as “binds”.
